Test results from paper PMC7819943, “Rice protein-binding microarrays: a tool to detect cis-acting elements near promoter regions in rice”.
This is one part of the list.

Amino acid sequences for entries named in this document (tags omitted).
UniProt Q0JBA9, entry or part of it: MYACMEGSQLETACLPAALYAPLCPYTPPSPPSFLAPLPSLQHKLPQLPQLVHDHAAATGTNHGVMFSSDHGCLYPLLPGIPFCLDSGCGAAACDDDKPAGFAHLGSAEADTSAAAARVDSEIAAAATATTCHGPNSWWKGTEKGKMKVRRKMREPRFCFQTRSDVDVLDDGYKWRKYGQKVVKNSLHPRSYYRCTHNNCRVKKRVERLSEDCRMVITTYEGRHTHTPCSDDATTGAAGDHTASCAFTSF

target: OsWRKY34 (Oryza sativa, UniProt Q0JBA9 1-250); experiment: protein-binding microarray (RPBM); PBS, 2% BSA, 51.3 ng/ul salmon testes DNA, 50 uM zinc acetate, 200 nM TF, 25 C, 1 h; high values mean tight binding; settings: protein: recombinant; tags: N-terminal polyhistidine and DsRed monomer fusion (pET32a); label: CyDye5-dUTP incorporated in the synthesized complementary strand; 3' TTTTT single-stranded linker to array surface; dsDNA, one strand shown
Procedure, shortened: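 The binding signal is fluorescence intensity per array feature (arbitrary units). Readings came from an Axon 4000B scanner after a washed, 2% BSA-blocked, double-stranded custom Agilent array had been incubated for 1 h at 25 °C with 200 nM protein and 50 µM zinc acetate. The protein was a Ni–NTA-purified transcription factor fused N-terminally to polyhistidine and DsRed, expressed in E. coli BL21-CodonPlus.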

In order of falling binding signal:
1. CCGCGTACCGCTTCGTTTCTTTTTTTCGTTGACCGTGTGACGGAGTCACCTAGTGCAG  13900 fluorescence intensity (a.u.)
2. GACCAATCCGCCGCCGCCACCTCGCCGCCTCCAGCCAATCCGGAGTCACCTAGTGCAG  13100 fluorescence intensity (a.u.)
3. ATTTTTTTAAAAAAAATTGATTAATATGATTTTTAAAACACGGAGTCACCTAGTGCAG  11800 fluorescence intensity (a.u.)
4. ATCGACTGATTCATCCGTTCTCTTTGTACTCTGTGGTTTTCGGAGTCACCTAGTGCAG  11600 fluorescence intensity (a.u.)
5. ATTCTGTCTTGGTTTTTATAATGCGCATCTGATTCATTAACGGAGTCACCTAGTGCAG  11500 fluorescence intensity (a.u.)
6. GTTCCATCTGATTCTAGGGGTTGGTTTGGTTCGTGGCCTACGGAGTCACCTAGTGCAG  11400 fluorescence intensity (a.u.)
7. GTACATGGGGTTCTCTGATATTTACTCTTTATTTTTCAATCGGAGTCACCTAGTGCAG  10400 fluorescence intensity (a.u.)
8. AGAGTTTTTTCAGTTTCACTCTATTTCTTCTTTACTACTACGGAGTCACCTAGTGCAG  10200 fluorescence intensity (a.u.)
9. GTGTCTGCCTCTCTCTCTCGCGCGCGCAGCCTACCGCCACCGGAGTCACCTAGTGCAG  10000 fluorescence intensity (a.u.)
10. ACCACACCCATCCATCCATCCATCGACGCACGCGTCGTCGCGGAGTCACCTAGTGCAG  10000 fluorescence intensity (a.u.)
11. CCCCTGACATCAATCGTCGCACCATCCATTCGATCGGTTTCGGAGTCACCTAGTGCAG  9930 fluorescence intensity (a.u.)
12. ACATTATCCTTATTGATGGTATTTGCCTCTCTTTTTTTATCGGAGTCACCTAGTGCAG  9840 fluorescence intensity (a.u.)
13. AAGCCACCAACCAGCATATATGCCCAACGATTTCGCTATACGGAGTCACCTAGTGCAG  9750 fluorescence intensity (a.u.)
14. CAGGATTGCTTGGAGATTCGTGCGGGGACGCGCGGGGTGACGGAGTCACCTAGTGCAG  9720 fluorescence intensity (a.u.)
15. CAGCACACTCACCCCTATGAACGCACACACGCACACCCTACGGAGTCACCTAGTGCAG  9660 fluorescence intensity (a.u.)
16. ATTTCCCAGCTAGTATATGCACGGTAATTTGGCACGTGCACGGAGTCACCTAGTGCAG  9610 fluorescence intensity (a.u.)
17. ATGTTTCTTACATTTTGTAACGTCATCCATGTTGCTGTGACGGAGTCACCTAGTGCAG  9480 fluorescence intensity (a.u.)
18. CCAACTTCTCCTTTTCAACCACCTACCTGACTTCACCGTTCGGAGTCACCTAGTGCAG  9420 fluorescence intensity (a.u.)
19. TTTGTCCAGGTATCCATTTTGTCTCTCTTGTCCTCCGTTGCGGAGTCACCTAGTGCAG  9250 fluorescence intensity (a.u.)
20. TGTATTCCTTCTTGTGCTCTGTTTTAATTTTTCTAATTTTCGGAGTCACCTAGTGCAG  9180 fluorescence intensity (a.u.)
21. ATCGTTGTTAAGTTTTCGGTTGCATCCATCTGTTAAGTGCCGGAGTCACCTAGTGCAG  9150 fluorescence intensity (a.u.)
22. CGGCTCGCAAGCCGTCGTTGCCACGGTCGCGCATGTCGCGCGGAGTCACCTAGTGCAG  9120 fluorescence intensity (a.u.)
23. GAATGATTCTTTCGCTGTTTATTTTCCCTGATCATTAATTCGGAGTCACCTAGTGCAG  9060 fluorescence intensity (a.u.)
24. CTTCACTTGATCCATCTGAGTTGCTGCTTCATACGAGACCCGGAGTCACCTAGTGCAG  9020 fluorescence intensity (a.u.)
25. TCTAGGGTGTTGCAACCAAATTCTTCGAGTGTTGTATCTCCGGAGTCACCTAGTGCAG  8960 fluorescence intensity (a.u.)
26. CAGTCACAGCCACTGGCGATTGTTTTCTCGCCGAAGTCATCGGAGTCACCTAGTGCAG  8810 fluorescence intensity (a.u.)
27. ATCCTCGCCGCTTCTGCCGCCGCCGCCGGCTCCCCTCCTCCGGAGTCACCTAGTGCAG  8730 fluorescence intensity (a.u.)
28. GCCTCTCACCACCTGCGAAACCACGGCTGACGCATCGATGCGGAGTCACCTAGTGCAG  8640 fluorescence intensity (a.u.)
29. GAAGATTTTGTTCCAGTTAATAACCCCAGCCAAACCAAACCGGAGTCACCTAGTGCAG  8520 fluorescence intensity (a.u.)
30. ATGTCAGCCTGTCACCGAATTCCACCGTTTATCCGAGGGACGGAGTCACCTAGTGCAG  8500 fluorescence intensity (a.u.)
31. GAAATCGGATCCCCTTGACGCAATCCTCTGGTTGGCATGACGGAGTCACCTAGTGCAG  8500 fluorescence intensity (a.u.)
32. GTTACTGTCTATAGATCACCATGTTACTGTCCGGTTTACTCGGAGTCACCTAGTGCAG  8420 fluorescence intensity (a.u.)
33. CTCTGCTTTGTCATTTCATACCTGATTTCAGTGTGGGAACCGGAGTCACCTAGTGCAG  8380 fluorescence intensity (a.u.)
34. GTGGTGGTGGTGAAAGGGTTAAGATTGCTCGTAGGATCCTCGGAGTCACCTAGTGCAG  8370 fluorescence intensity (a.u.)
35. GCAGAGCATTCCTATCTACTTCGCCTCAGCTTCCTGCACCCGGAGTCACCTAGTGCAG  8290 fluorescence intensity (a.u.)
36. AATTCTATTACCTATAGGAAAGGTATGACCATGCTGTGTTCGGAGTCACCTAGTGCAG  8270 fluorescence intensity (a.u.)
37. GAGATCCAGAGAACTTTTTTTCTCCCTCTTGGATTCATTCCGGAGTCACCTAGTGCAG  8270 fluorescence intensity (a.u.)
38. TGTCTTCTTCTTTGCCTCTCCCATTGCCAGTTTGCCACTCCGGAGTCACCTAGTGCAG  8210 fluorescence intensity (a.u.)
39. GGATCCGGGCATCTGGCTGCCCCGCCGCCACTCCGCCTAGCGGAGTCACCTAGTGCAG  8170 fluorescence intensity (a.u.)
40. CGCCTCGCCTCTTCCCAGTTCGCACTATCGCTTGCTTTCCCGGAGTCACCTAGTGCAG  8090 fluorescence intensity (a.u.)
41. CATGTAATTTTTTATTTGTTTTTGGACCACCTACCCTGTCCGGAGTCACCTAGTGCAG  8030 fluorescence intensity (a.u.)
42. TGTGGTTAAGGGACTTTAAAAATTCTCGTGGTTAAGTTGACGGAGTCACCTAGTGCAG  8020 fluorescence intensity (a.u.)
